Reference: doi:10.1101/710020
These are yes or no findings as the source states them, for the method shown. In cells and extracts the contact can be indirect. Here binding means that the protein was enriched with, or labelled near, the bait; the list need not be complete.

By UniProt entry, the sequences of proteins in these tests, tags left out. Where a name states a change or a piece, a line headed by the entry shows the natural chain unless it says otherwise.
UniProt P35177: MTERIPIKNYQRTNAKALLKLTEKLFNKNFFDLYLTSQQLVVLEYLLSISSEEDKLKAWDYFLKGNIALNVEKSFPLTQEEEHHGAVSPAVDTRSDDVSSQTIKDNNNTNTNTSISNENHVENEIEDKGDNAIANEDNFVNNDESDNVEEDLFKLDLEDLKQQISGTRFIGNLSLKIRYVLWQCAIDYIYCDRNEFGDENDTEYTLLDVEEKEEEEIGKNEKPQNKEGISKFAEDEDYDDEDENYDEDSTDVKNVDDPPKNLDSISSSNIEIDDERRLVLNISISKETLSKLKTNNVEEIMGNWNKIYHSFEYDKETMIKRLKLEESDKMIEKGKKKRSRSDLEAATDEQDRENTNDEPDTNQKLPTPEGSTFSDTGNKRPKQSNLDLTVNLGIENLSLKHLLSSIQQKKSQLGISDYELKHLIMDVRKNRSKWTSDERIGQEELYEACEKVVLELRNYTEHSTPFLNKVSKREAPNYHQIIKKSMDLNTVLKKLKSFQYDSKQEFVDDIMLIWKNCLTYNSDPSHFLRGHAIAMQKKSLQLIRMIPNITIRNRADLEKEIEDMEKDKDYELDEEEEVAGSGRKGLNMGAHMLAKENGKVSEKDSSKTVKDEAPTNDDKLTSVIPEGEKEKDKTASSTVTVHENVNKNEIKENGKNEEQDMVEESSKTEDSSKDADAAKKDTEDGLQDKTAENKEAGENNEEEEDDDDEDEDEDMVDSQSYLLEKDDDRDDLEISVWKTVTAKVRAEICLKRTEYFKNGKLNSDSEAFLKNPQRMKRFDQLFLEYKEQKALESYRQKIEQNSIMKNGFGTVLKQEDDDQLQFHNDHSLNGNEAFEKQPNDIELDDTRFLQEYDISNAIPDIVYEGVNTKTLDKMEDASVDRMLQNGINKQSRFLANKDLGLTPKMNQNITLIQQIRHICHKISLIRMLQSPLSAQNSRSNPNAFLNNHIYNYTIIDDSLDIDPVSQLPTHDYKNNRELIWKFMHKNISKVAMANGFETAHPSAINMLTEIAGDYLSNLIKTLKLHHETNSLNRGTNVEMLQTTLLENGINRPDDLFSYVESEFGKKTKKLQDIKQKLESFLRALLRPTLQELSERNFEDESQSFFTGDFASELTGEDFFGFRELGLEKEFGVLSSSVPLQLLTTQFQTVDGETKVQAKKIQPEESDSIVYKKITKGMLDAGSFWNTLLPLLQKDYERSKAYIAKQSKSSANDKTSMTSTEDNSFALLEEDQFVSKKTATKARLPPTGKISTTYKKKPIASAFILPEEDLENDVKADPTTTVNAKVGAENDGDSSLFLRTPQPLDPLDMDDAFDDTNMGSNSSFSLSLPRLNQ
UniProt P38811: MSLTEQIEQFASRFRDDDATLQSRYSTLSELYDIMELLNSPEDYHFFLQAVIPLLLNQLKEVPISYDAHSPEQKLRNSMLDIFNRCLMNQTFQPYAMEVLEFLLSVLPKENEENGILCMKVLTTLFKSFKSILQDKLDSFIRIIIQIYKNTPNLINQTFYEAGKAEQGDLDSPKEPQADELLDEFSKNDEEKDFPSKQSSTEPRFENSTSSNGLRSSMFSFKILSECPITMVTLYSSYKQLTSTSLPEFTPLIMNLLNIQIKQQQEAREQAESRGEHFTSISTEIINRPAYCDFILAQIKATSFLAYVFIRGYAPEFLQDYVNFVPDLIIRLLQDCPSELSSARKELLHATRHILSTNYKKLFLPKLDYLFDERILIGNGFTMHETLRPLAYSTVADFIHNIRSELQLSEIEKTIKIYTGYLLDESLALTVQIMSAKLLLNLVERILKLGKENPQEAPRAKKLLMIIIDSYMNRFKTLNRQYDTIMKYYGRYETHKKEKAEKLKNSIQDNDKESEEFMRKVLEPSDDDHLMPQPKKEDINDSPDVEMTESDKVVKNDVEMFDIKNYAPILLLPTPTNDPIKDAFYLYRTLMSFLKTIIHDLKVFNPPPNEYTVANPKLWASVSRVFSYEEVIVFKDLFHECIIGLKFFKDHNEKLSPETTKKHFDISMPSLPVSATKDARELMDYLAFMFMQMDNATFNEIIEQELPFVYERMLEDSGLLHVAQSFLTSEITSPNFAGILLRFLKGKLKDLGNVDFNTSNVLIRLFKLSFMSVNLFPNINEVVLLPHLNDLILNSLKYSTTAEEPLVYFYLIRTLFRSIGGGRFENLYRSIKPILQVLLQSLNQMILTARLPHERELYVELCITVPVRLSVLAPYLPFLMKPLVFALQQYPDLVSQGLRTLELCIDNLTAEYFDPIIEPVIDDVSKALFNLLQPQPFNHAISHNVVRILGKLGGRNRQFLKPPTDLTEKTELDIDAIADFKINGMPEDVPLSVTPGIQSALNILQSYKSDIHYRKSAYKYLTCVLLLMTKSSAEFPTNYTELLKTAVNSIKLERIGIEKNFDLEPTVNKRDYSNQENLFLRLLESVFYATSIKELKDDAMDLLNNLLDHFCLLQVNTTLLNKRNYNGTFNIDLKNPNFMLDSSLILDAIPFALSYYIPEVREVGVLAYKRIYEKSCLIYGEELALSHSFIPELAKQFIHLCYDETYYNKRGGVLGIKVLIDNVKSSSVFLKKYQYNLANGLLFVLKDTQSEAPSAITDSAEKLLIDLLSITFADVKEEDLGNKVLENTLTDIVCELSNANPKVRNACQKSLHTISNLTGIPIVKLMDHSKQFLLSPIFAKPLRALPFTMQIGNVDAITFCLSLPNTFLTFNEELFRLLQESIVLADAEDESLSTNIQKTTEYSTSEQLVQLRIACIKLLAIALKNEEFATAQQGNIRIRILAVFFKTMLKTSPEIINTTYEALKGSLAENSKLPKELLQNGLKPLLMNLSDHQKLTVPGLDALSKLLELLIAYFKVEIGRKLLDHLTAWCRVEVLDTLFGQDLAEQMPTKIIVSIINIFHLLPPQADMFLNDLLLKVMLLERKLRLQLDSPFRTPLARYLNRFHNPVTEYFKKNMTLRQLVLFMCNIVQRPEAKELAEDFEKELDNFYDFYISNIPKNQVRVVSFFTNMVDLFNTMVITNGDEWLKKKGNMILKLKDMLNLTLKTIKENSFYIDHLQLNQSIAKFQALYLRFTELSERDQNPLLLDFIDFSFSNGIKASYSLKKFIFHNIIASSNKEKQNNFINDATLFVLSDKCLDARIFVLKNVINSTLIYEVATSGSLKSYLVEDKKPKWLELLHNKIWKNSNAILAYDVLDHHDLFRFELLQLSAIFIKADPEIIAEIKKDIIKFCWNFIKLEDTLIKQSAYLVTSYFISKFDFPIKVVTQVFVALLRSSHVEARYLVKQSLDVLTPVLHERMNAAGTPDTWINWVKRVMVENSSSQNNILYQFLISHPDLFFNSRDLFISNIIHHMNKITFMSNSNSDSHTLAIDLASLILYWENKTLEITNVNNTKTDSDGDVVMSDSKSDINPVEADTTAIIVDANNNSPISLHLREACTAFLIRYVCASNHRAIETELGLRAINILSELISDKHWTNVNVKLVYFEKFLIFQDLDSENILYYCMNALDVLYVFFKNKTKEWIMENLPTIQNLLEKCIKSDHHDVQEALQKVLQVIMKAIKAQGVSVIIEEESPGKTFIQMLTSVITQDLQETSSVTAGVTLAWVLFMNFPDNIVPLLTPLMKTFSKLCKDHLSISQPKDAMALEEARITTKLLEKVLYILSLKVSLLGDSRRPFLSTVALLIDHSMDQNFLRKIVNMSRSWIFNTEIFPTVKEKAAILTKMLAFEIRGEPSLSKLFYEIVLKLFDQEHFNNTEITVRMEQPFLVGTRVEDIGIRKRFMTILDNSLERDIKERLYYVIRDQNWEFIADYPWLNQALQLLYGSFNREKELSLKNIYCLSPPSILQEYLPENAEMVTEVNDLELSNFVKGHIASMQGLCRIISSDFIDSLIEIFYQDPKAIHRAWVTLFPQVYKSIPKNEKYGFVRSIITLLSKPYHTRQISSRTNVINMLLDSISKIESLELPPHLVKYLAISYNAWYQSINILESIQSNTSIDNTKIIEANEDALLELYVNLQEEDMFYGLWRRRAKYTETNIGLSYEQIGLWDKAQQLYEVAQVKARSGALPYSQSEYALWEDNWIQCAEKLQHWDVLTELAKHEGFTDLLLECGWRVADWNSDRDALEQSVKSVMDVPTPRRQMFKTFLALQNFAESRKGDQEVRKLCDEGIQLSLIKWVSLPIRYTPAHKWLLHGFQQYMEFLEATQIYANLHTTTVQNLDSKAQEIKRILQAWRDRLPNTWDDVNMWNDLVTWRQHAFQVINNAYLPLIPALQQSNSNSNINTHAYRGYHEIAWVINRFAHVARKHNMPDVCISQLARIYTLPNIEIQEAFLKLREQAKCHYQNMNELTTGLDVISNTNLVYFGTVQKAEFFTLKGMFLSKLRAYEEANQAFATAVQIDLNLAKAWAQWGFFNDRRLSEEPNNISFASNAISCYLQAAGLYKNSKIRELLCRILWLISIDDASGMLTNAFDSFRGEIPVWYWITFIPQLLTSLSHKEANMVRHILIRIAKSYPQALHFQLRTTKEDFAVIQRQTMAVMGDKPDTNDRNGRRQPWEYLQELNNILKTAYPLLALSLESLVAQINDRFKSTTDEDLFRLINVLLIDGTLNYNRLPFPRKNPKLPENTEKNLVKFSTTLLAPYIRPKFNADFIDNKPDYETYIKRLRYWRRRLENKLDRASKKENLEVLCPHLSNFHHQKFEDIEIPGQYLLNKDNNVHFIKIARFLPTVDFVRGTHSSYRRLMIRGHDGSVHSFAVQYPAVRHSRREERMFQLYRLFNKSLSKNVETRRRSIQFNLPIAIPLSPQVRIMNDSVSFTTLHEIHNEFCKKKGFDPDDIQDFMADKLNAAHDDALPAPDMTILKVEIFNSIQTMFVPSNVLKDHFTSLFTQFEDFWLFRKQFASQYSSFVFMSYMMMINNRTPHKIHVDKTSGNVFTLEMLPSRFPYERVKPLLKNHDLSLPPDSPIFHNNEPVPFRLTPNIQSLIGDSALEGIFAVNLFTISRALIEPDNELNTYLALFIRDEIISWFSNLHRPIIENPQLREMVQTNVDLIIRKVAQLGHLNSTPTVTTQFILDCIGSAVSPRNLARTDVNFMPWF

T1: Spt20-TAP (S. cerevisiae) (UniProt P50875)
T1 sequence: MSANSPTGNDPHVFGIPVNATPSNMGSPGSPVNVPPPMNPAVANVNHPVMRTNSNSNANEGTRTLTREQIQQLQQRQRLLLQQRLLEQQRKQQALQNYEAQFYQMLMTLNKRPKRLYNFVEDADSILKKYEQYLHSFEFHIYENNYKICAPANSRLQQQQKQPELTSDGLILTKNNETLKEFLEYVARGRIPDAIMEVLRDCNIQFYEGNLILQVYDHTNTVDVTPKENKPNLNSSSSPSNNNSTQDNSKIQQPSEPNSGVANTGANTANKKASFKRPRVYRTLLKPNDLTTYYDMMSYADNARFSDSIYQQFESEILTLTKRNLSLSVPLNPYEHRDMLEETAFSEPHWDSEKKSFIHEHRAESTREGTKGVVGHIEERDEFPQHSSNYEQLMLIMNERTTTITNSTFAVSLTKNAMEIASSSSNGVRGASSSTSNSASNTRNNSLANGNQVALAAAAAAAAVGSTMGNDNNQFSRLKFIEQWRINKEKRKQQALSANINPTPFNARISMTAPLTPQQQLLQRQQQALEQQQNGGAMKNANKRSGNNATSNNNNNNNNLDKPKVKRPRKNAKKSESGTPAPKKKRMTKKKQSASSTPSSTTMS

B1: Spt8 (~80 kD species) (protein, UniProt P38915 1-602)
chain: MDEVDDILINNQVVDDEEDDEEMLSGLENDSKQDLEGNDDGGEDEEDDDDDDEDDDDDEDEREDDDEQEDDDGEDDAARMDKTATPTNEHQHDEQKAAAAGAGGAGDSGDAVTKIGSEDVKLSDVDGGVGSREASSSTHEASANGEVYEYYKHMLNAAQIADSYNIYPTAAIPIQTHVNALAVSRGLKYLFLGGSDGYIRKYDLLNTLEGKLSLTILQKHSLAESIQNAGILQSYWENEIPQKKSEMKLSANKTDYEPKVSPVHSLEVQSECLFILSGLQNGGITMQGVRYMEGSIAHYFKGRNGHTQIVNILRLNGQEDRFLSGSWDKRLLEWDLQTGDIVNEFKKSRSELSSLEMRPLYSSVDVSGNVNSGKENENADDDMDSLFGDEDEDEKQDAGNEPVETGDGSNGEENKEQISEESLNIVYDESVFMTSGLNGSVHIWDRRMTQSPALSLERGAGVPPWCLSACWGVDGDHVYAGRRNACVEQFDLKMPSKPIHNLKLPSISGPVSCVKAMPNNKHLLCASRDNIRLYNVEIAVDASNSTTKSSKVPFLIVPGHHGGIISNLYLDPTSRFIISTSGNRGWQGNSTDTTLIYDIDLE

What follows are molecules tested against T1, Spt20-TAP (S. cerevisiae) (assay: affinity purification with mass spectrometry).

binding, binds:
C-terminal truncation of Spt7 (~180 kD species) (from UniProt P35177 1-1141) (domain or fragment)
Spt7 (full-length, ~200 kD species) (from UniProt P35177 1-1332)
Tra1 (from UniProt P38811 1-3744)
B1
